# Test results from PubChem BioAssay AID624297 (National Center for Advancing Translational Sciences (NCATS), 2012).
# Screen size: about 340,000 compounds; about 6,200 (1.8%) were called active. Inconclusive means that the source gave no clear call. Such entries were picked first, then a sample of the others. The call rests on the fitted dose curve; in most records, active means well fitted activation curve with a large enough effect; inconclusive means small, poorly fitted or top-dose-only effect; inactive means no such curve, though single readings can be large or run the other way. Potencies beside an inconclusive call are fits to weak or partial responses and may not hold up.
# Experiment: A quantitative high throughput screen for small molecules that induce DNA re-replication in SW480 colon adenocarcinoma cells. Further: nearly all actives have a fitted effect of over 55% in size. On re-replication activation: % of control where 0% means no effect.
# Conditions: Hoechst DNA content imaging, 48 h; re-replication activation: at 46.1 µM (top of the series)
# How it was run: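 SW480 cells exposed to compounds for 48 hr at 37 C, 5% CO2, then Hoechst-stained 40 min. Nuclear DNA content imaged by fluorescence scanning (405 nm excitation, 500-530 nm emission); re-replication scored as increased high-intensity nuclei.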
# Potency means the concentration at half of the fitted maximal effect.
Compound,Potency,re-replication activation
COC(=O)C1(Cc2ccc3c(c2)CCC3)Cc2ccc3c(c2C1=O)CCC3 (stereo unspecified),"inconclusive: 20.6 µM [activator, single point]",
O=C(C=C=Nc1ccccc1)C(=O)N=C=Cc1ccccc1,"inconclusive: 6.51 µM [activator, single point]",
Cc1ccc(CN(C)c2ccc(S(=O)(=O)N3CCCC3)cn2)cc1,"inconclusive: 0.206 µM [activator, full curve, poor fit]",
O=C(NC(NC(=S)Nc1ccccc1)C(Cl)(Cl)Cl)c1cccc(Cl)c1 (stereo unspecified),"inconclusive: 29.1 µM [activator, partial curve, poor fit]",
O=C(CCC(=O)N1CCN(c2ccc(F)cc2)CC1)c1ccc(F)cc1,"inconclusive: 7.31 µM [activator, partial curve, poor fit]",
COC(=O)[C@]1(C)N[C@H](CN(C)C(=O)c2ccccc2)[C@@H]2C(=O)N(Cc3ccccc3)C(=O)[C@@H]21,"inconclusive: 1.16 µM [activator, single point]",
COc1ccc(C2c3c(-c4ccccc4O)n[nH]c3C(=O)N2CCc2ccc(OC)c(OC)c2)cc1 (stereo unspecified),inactive,
COc1ccc(-c2ccc(CCC(=O)O)n2CC(C)C)cc1,active: 9.2 µM,
Cc1cccc(-n2c(SCC(=O)Nc3ncc(Cl)cc3Cl)nc3ccccc32)c1,"inconclusive: 18.4 µM [activator, single point]",
CCOc1ccccc1NC(=O)CN1C(=O)COc2ccc(S(=O)(=O)N3CCOCC3)cc21,"inconclusive: 29.1 µM [activator, single point]",
N#CCC(=O)N/N=C/c1c2ccccc2cc2ccccc12,"inconclusive: 25.9 µM [activator, single point]",
Cc1ccc2[nH]c(C(=O)N/N=C/c3ccccc3C(=O)O)c(-c3ccccc3)c2c1,"inconclusive: 18.4 µM [activator, partial curve, poor fit]",
O=C(Cn1cc([N+](=O)[O-])nc1[N+](=O)[O-])N1CCN(c2ccccc2)CC1,"inconclusive: 23.1 µM [activator, single point]",
O=C(C[n+]1ccc(-c2cc(C(=O)Nc3cccc(C(F)(F)F)c3)c3ccccc3n2)cc1)c1cccc([N+](=O)[O-])c1,"inconclusive: 29.1 µM [activator, single point]",
CCn1c(COc2ccc(Cl)cc2)nnc1SCC(=O)Nc1ccc2c(c1)OCO2,inactive,
COc1cc(OC)c(-c2nc(-c3ccncc3)no2)cc1OC,inactive,
CCN(C(=O)c1cc2c(=O)n3ccccc3nc2n1C)C1CCCCC1,"inconclusive: 9.2 µM [activator, partial curve, poor fit]",
O=C(OCc1nnc(-c2ccccc2)o1)c1ccccc1,inactive,
O=C(c1[nH]ncc1-c1ccccc1)C1CO1 (stereo unspecified),"inconclusive: 20.6 µM [activator, single point]",
Cc1ccc2nsnc2c1S(=O)(=O)N(Cc1ccco1)Cc1cc2cccc(C)c2[nH]c1=O,"inconclusive: 23.1 µM [activator, partial curve, poor fit]",
CCC(C(=O)NC1CCCCCC1)c1ccccc1 (stereo unspecified),inactive,
Cc1ccc2oc(C(=O)NCCCN3CCOCC3)c(C)c2c1,inactive,

Compound,Potency,re-replication activation
Cc1ccccc1COc1ccc(-c2nnn(CC(=O)O)n2)cc1,inactive,
S=c1[nH]c(-c2cccs2)cn1-c1ccccc1,inactive,
CCc1cc2cc(C)ccc2nc1SCC(=O)Nc1cc(C)on1,inactive,
O=C(CN(Cc1ccco1)C(=O)c1ccc(Cl)cc1)Nc1ccc(Cl)c(Cl)c1,"inconclusive: 29.1 µM [activator, partial curve, poor fit]",
COC(=O)c1c(NC(=O)c2ccco2)sc(C)c1C,"inconclusive: 29.1 µM [activator, partial curve, poor fit]",
CC(C)c1onc(C(=O)Nc2cccc(Cl)c2)c1[N+](=O)[O-],"inconclusive: 29.1 µM [activator, single point]",
N#Cc1c(N)nc(SCc2ccncc2)c(C#N)c1-c1cccs1,"inconclusive: 25.9 µM [activator, single point]",
O=C(O)c1ccc2c(=O)n3c(nc2c1)/C(=C/c1cccc(O)c1)CC3,inactive,
CC(C)(C)C1CCC(=O)N(CCSc2ccccc2)CC1 (stereo unspecified),inactive,
C=CC[C@@H]1/C=C(\C)C[C@H](C)C[C@H](OC)[C@H]2O[C@@](O)(C(=O)C(=O)N3CCCC[C@H]3C(=O)O[C@H](/C(C)=C/[C@@H]3CC[C@@H](O)[C@H](OC)C3)[C@H](C)[C@@H](O)CC1=O)[C@H](C)C[C@@H]2OC,"inconclusive: 18.8 µM [activator, partial curve, poor fit]",
Cn1ncc([N+](=O)[O-])c1C(=O)Nc1ccccc1Cl,inactive,
Cc1cccnc1CCNC(=O)CCc1nnc(CCc2ccccc2)o1,inactive,
COc1ccccc1N1CCN(c2nc3c(C)cccn3c(=O)c2C=O)CC1,inactive,
CSc1ccc(C(=O)C2CCCN(C(=O)c3cc4cc(F)ccc4[nH]3)C2)cc1 (stereo unspecified),"inconclusive: 18.4 µM [activator, single point]",
Cc1noc(C)c1CSCC(=O)N(C)CC(=O)Nc1ccc(F)cc1,"inconclusive: 23.1 µM [activator, single point]",
O=C(COC(=O)c1ccc(F)cc1)Nc1cc(S(=O)(=O)N2CCOCC2)ccc1N1CCCC1,inactive,
CC1CC(C)CN(CCCNC(=O)c2cn(C)c3ccc(S(=O)(=O)N4CCCC4)cc3c2=O)C1 (stereo unspecified),"inconclusive: 18.4 µM [activator, single point]",
CCN(Cc1ccc(OC)c(F)c1)C(=O)c1cc2ccccc2o1,"inconclusive: 11.6 µM [activator, single point]",
Cc1ccc(NS(=O)(=O)c2ccccc2)c(NS(=O)(=O)c2ccccc2)c1,inactive,
CCOc1ccc(-n2c(N)c(C(=O)NCc3ccco3)c3nc4ccccc4nc32)cc1,"inconclusive: 29.1 µM [activator, partial curve, poor fit]",
O=C(COC(=O)CC1CC2CCC1C2)Nc1ccc(F)cc1Cl (stereo unspecified),inactive,
CCN1C(=O)c2ccccc2S(=O)c2ccc(C(=O)NCc3ccc(OC)cc3)cc21 (stereo unspecified),inactive,

# Arranged by SMILES length (smallest number first): 4 of the compounds above
Compound,Potency,re-replication activation
N#CCC(=O)N/N=C/c1c2ccccc2cc2ccccc12,"inconclusive: 25.9 µM [activator, single point]",
Cc1ccc(CN(C)c2ccc(S(=O)(=O)N3CCCC3)cn2)cc1,"inconclusive: 0.206 µM [activator, full curve, poor fit]",
O=C(CN(Cc1ccco1)C(=O)c1ccc(Cl)cc1)Nc1ccc(Cl)c(Cl)c1,"inconclusive: 29.1 µM [activator, partial curve, poor fit]",
CCN1C(=O)c2ccccc2S(=O)c2ccc(C(=O)NCc3ccc(OC)cc3)cc21 (stereo unspecified),inactive,

# Remaining list, next part

Compound,Potency,re-replication activation
OC(C#CCN1CCCCC1)(c1ccccc1)c1ccccc1,"inconclusive: 6.51 µM [activator, partial curve, poor fit]",
CCCNC(=O)NNC(=O)c1cc(-c2ccc3c(c2)OCO3)nc2ccccc12,"inconclusive: 29.1 µM [activator, single point]",
O=C(Oc1ccc(C(=S)N2CCOCC2)cc1)c1ccc([N+](=O)[O-])cc1[N+](=O)[O-],,inconclusive: 79.5% [activator]
O=[N+]([O-])c1ccc(-c2nnc3cccc(Cl)n23)cc1,"inconclusive: 9.2 µM [activator, partial curve]",
CCn1c(SCC(=O)NC2CCCCC2)nnc1-c1cccnc1,"inconclusive: 7.31 µM [activator, partial curve, poor fit]",
CCOC(=O)N1CCN(C(=O)C(=O)c2cn(CC(=O)N3CCCCCC3)c3ccccc23)CC1,"inconclusive: 20.6 µM [activator, single point]",
COC(=O)CSC1=C(C#N)C(c2ccsc2)CC(=O)N1 (stereo unspecified),"inconclusive: 23.1 µM [activator, single point]",
CCc1ccc(NC(=O)C2CCN(S(=O)(=O)c3cnc[nH]3)CC2)cc1,"inconclusive: 29.1 µM [activator, single point]",
CN(C)CCNC(=O)C(=O)NCC(c1ccc2c(c1)OCO2)N1CCN(c2ccc(F)cc2)CC1 (stereo unspecified),inactive,
COc1ccc2[nH]cc(CCNC(C)=O)c2c1,"inconclusive: 0.562 µM [activator, single point]",
Cc1c(C(=O)NNC(=O)Nc2ccc([N+](=O)[O-])cc2)oc2ccccc12,"inconclusive: 20.6 µM [activator, single point]",
CN(CC(=O)NNC(=O)Cc1ccccc1F)S(=O)(=O)c1ccc(Cl)cc1,inactive,
O=[N+]([O-])c1ccc(N2CCOCC2)cc1O,inactive,
CN(CC(=O)Nc1cccc(F)c1)C(=O)c1ccccc1OCC(=O)Nc1cccc(C(F)(F)F)c1,"inconclusive: 18.4 µM [activator, partial curve, poor fit]",
CC(C)(C)OC(=O)N1CCC(NC(=O)c2[nH]cnc2C(=O)N[C@@H](Cc2ccccc2)C(=O)OCc2ccccc2)CC1,"inconclusive: 20.6 µM [activator, single point]",
CN(CC(=O)Nc1ccc(F)cc1)CC(=O)N1CCc2ccccc21,"inconclusive: 29.1 µM [activator, partial curve, poor fit]",
CCCCc1ccc(-c2csc(/C(C#N)=C/c3ccco3)n2)cc1,"inconclusive: 18.4 µM [activator, single point]",
Cc1ccc(SCCNC(=O)c2ccc(C)c(S(=O)(=O)Nc3cccc(C)c3)c2)cc1,inactive,
Cc1[nH]c2ccccc2c1C(=O)/C=C\c1ccccc1Cl,"inconclusive: 18.4 µM [activator, single point]",
Cc1ccc(/C=C/C(=O)N2CCN(S(=O)(=O)/C=C/c3ccccc3)CC2)o1,inactive,
CCCOc1ccc(C(=O)CCC(=O)NNC(=O)c2cccs2)cc1,"inconclusive: 29.1 µM [activator, single point]",
COc1ccc(C(=O)CSC2=C(C#N)C3(CCCCC3)C(C#N)=C(N)N2)cc1,"inconclusive: 12.6 µM [activator, partial curve, poor fit]",
